Measurements as given in US20120034215A1 (Daiichi Sankyo, published 2012).
Results are given in words; binding and its absence hold for the method and conditions named. Some entries that bind do so weakly or less than the wild type.

The chains behind the UniProt entries cited, without tags or fusion partners. Where a name states a change or a piece, a line headed by the entry shows the natural chain unless it says otherwise.
UniProt Q62190: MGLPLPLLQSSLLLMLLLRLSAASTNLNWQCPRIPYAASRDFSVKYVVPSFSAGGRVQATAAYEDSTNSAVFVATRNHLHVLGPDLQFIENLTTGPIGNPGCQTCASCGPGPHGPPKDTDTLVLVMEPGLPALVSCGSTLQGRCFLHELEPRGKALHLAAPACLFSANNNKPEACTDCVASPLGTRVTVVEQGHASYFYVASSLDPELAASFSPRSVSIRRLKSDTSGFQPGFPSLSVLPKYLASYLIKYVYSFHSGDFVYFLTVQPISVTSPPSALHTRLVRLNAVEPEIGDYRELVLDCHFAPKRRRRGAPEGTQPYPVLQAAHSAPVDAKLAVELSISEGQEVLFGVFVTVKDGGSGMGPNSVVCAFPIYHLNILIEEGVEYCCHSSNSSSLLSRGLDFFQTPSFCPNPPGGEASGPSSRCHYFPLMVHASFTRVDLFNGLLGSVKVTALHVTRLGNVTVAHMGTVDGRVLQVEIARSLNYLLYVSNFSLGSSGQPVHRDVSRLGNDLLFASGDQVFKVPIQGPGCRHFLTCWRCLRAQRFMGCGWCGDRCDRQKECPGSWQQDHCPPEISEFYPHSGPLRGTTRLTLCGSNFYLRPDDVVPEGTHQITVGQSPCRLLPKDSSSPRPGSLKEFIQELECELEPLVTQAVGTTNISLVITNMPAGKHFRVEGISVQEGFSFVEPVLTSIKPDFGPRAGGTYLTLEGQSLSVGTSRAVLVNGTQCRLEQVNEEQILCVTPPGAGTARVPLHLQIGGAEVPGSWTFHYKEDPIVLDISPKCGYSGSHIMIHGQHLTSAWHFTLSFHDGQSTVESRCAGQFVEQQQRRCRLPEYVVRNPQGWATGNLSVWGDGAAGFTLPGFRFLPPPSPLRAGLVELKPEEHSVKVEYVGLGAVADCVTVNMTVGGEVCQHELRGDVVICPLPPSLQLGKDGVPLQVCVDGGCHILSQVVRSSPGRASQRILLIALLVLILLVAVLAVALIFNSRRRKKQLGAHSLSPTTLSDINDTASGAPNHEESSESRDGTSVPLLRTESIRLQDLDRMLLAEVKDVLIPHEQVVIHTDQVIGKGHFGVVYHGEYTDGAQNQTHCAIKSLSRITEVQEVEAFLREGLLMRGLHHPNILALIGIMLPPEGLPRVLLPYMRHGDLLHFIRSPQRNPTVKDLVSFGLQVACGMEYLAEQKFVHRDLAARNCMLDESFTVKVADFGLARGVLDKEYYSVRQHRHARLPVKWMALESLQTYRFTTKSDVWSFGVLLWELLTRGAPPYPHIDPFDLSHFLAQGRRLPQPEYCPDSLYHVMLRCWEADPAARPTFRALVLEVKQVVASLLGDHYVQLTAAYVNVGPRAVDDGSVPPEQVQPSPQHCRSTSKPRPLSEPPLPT

Biological target: mouse MST1R with N-terminal Flag tag, expressed on HEK293T cells (mouse) (UniProt Q62190)
Test: flow cytometry on transfected HEK293T cells, 2 ug/ml IgG1

B1: MOR07919 (human IgG1) (antibody, V domains shown)
VH: QVQLVQSGAEVKKPGESLKISCKGSGYSFTNYWISWVRQMPGKGLEWMGFIYPDDSYTRYSPSFQGQVTISADKSISTAYLQWSSLKASDTAMYYCARFSYRHYLDMDDHWGQGTLVTVSS
VL: DIELTQPPSVSVAPGQTARISCSGDSLGSKYVHWYQQKPGQAPVLVIYRDNKRPSGIPERFSGSNSGNTATLTISGTQAEDEADYYCQSYDATEFTYVFGGGTKLTVLG
B1 was tested, and the binding was “binds”.
